The source of these data is PMC9844029.

Results are given in words; binding and its absence hold for the method and conditions named. Binding seen in cells or lysates may run through a third protein.

The assay addresses T1, ARGONAUTE 1 (Arabidopsis thaliana (endogenous in Col-0 background plants)) (UniProt O04379).
T1 sequence: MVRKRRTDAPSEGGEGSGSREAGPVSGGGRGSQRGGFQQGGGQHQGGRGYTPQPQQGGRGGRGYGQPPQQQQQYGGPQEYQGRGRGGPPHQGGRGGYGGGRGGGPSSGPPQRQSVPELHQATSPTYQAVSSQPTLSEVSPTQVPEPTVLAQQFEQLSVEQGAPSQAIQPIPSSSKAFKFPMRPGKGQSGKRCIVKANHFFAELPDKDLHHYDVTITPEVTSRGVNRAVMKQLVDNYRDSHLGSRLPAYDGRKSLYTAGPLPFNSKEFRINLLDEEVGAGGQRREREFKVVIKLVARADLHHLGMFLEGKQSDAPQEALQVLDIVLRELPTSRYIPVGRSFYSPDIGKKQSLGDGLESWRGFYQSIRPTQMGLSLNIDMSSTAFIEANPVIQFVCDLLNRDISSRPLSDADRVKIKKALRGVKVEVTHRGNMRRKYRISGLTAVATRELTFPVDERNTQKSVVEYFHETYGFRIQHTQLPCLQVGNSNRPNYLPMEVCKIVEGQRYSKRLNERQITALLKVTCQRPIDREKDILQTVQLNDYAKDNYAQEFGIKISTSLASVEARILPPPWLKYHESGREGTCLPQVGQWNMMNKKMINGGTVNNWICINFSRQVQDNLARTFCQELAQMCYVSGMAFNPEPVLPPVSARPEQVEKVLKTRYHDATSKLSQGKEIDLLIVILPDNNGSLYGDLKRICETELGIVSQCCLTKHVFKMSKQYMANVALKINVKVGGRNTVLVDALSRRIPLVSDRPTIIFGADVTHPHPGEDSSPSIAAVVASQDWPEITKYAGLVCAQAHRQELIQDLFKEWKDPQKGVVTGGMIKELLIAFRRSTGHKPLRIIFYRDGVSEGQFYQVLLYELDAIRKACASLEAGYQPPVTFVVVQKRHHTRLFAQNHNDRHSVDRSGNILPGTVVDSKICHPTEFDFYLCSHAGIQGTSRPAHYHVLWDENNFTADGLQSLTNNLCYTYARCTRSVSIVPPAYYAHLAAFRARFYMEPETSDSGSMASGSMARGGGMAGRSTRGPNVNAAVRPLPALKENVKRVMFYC
The assay can be described thus: co-IP; endogenous AGO1 immunoprecipitated from tissue lysate of P1/HC-Pro plants with homemade polyclonal α-AGO1 IgG on protein A beads, 4 °C, 2 h; IP buffer 50 mM Tris-HCl pH 7.5, 150 mM NaCl, 5 mM MgCl2, 0.1% Nonidet P-40, 10% glycerol, 5 mM DTT; HC-Pro looked for by western blot.
As for TEV HC-Pro (tobacco etch virus), the binding result is on record as “no binding”. The same measure for TuMV HC-Pro (turnip mosaic virus): “no binding”; for “ZYMV HC-Pro (zucchini yellow mosaic virus)”: “no binding”.
